According to publication PMC9918532:
These are yes or no findings as the source states them, for the method shown. In cells and extracts the contact can be indirect. Some entries that bind do so weakly or less than the wild type. Sequences can lack the tags named with a protein.

T1: HA-OGT (human) (UniProt O15294)
T1 sequence: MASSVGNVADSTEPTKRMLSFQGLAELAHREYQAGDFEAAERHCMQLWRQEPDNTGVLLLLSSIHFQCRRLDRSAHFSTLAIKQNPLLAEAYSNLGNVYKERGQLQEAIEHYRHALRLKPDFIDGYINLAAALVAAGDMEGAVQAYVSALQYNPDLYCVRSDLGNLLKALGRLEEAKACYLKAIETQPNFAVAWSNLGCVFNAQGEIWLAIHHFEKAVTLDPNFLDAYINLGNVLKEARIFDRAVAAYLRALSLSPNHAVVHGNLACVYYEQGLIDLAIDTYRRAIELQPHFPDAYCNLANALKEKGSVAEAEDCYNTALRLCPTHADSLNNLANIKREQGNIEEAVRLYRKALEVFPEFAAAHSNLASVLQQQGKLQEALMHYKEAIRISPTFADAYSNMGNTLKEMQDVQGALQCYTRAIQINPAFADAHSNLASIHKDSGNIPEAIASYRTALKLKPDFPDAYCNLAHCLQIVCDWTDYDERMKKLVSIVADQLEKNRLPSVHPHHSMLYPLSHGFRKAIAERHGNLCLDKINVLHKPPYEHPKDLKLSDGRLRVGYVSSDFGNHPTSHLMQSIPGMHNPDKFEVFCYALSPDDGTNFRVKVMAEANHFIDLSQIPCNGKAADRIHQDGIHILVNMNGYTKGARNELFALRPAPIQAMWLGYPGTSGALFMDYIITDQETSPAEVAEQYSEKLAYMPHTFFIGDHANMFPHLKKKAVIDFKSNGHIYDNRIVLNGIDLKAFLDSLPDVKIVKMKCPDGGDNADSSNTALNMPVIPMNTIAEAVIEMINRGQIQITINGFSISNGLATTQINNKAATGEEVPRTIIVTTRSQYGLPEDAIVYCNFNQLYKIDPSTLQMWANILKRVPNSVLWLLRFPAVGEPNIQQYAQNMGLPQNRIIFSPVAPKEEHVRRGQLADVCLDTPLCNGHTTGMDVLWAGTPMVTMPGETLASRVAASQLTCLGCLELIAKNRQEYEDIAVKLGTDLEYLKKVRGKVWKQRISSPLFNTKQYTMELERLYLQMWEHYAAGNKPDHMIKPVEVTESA

T2: HA-YTHDF2 (human) (UniProt Q9Y5A9)
T2 sequence: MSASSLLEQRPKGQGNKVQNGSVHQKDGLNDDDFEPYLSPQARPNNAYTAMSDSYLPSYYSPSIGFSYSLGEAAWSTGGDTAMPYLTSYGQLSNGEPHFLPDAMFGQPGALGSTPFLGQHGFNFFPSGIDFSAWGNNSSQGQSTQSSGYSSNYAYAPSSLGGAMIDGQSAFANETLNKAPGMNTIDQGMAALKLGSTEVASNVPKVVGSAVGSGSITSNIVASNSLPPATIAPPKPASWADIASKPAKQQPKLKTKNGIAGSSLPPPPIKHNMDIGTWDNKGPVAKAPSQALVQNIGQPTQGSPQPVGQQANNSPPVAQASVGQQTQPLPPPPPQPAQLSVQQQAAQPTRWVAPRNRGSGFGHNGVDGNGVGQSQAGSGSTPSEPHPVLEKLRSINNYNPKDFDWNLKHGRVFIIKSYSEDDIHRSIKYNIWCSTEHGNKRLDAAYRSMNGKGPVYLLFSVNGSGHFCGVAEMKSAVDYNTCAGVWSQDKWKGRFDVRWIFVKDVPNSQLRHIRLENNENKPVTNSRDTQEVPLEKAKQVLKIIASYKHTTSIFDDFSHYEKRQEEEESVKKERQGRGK


Legend:
HA-OGT (human) = biological target: T1, HA-OGT (human); assay: co-IP; HEK293 cells co-transfected with HA-tagged or Flag-tagged OGT and YTHDF2 (full length, ΔC or ΔN); pre-cleared lysates with anti-HA antibody overnight at 4 °C, then protein A/G agarose beads 4 h; immunoblot
HA-YTHDF2 (human) = biological target: T2, HA-YTHDF2 (human); assay: as above

Row | binding (HA-OGT (human)) | binding (HA-YTHDF2 (human)) | Binder
1 | binds |  | Flag-YTHDF2 (protein, UniProt Q9Y5A9-1 1-579) MSASSLLEQRPKGQGNKVQNGSVHQKDGLNDDDFEPYLSPQARPNNAYTAMSDSYLPSYYSPSIGFSYSLGEAAWSTGGDTAMPYLTSYGQLSNGEPHFLPDAMFGQPGALGSTPFLGQHGFNFFPSGIDFSAWGNNSSQGQSTQSSGYSSNYAYAPSSLGGAMIDGQSAFANETLNKAPGMNTIDQGMAALKLGSTEVASNVPKVVGSAVGSGSITSNIVASNSLPPATIAPPKPASWADIASKPAKQQPKLKTKNGIAGSSLPPPPIKHNMDIGTWDNKGPVAKAPSQALVQNIGQPTQGSPQPVGQQANNSPPVAQASVGQQTQPLPPPPPQPAQLSVQQQAAQPTRWVAPRNRGSGFGHNGVDGNGVGQSQAGSGSTPSEPHPVLEKLRSINNYNPKDFDWNLKHGRVFIIKSYSEDDIHRSIKYNIWCSTEHGNKRLDAAYRSMNGKGPVYLLFSVNGSGHFCGVAEMKSAVDYNTCAGVWSQDKWKGRFDVRWIFVKDVPNSQLRHIRLENNENKPVTNSRDTQEVPLEKAKQVLKIIASYKHTTSIFDDFSHYEKRQEEEESVKKERQGRGK
2 |  | binds | Flag-OGT (enzyme, UniProt O15294-1 1-1046) MASSVGNVADSTEPTKRMLSFQGLAELAHREYQAGDFEAAERHCMQLWRQEPDNTGVLLLLSSIHFQCRRLDRSAHFSTLAIKQNPLLAEAYSNLGNVYKERGQLQEAIEHYRHALRLKPDFIDGYINLAAALVAAGDMEGAVQAYVSALQYNPDLYCVRSDLGNLLKALGRLEEAKACYLKAIETQPNFAVAWSNLGCVFNAQGEIWLAIHHFEKAVTLDPNFLDAYINLGNVLKEARIFDRAVAAYLRALSLSPNHAVVHGNLACVYYEQGLIDLAIDTYRRAIELQPHFPDAYCNLANALKEKGSVAEAEDCYNTALRLCPTHADSLNNLANIKREQGNIEEAVRLYRKALEVFPEFAAAHSNLASVLQQQGKLQEALMHYKEAIRISPTFADAYSNMGNTLKEMQDVQGALQCYTRAIQINPAFADAHSNLASIHKDSGNIPEAIASYRTALKLKPDFPDAYCNLAHCLQIVCDWTDYDERMKKLVSIVADQLEKNRLPSVHPHHSMLYPLSHGFRKAIAERHGNLCLDKINVLHKPPYEHPKDLKLSDGRLRVGYVSSDFGNHPTSHLMQSIPGMHNPDKFEVFCYALSPDDGTNFRVKVMAEANHFIDLSQIPCNGKAADRIHQDGIHILVNMNGYTKGARNELFALRPAPIQAMWLGYPGTSGALFMDYIITDQETSPAEVAEQYSEKLAYMPHTFFIGDHANMFPHLKKKAVIDFKSNGHIYDNRIVLNGIDLKAFLDSLPDVKIVKMKCPDGGDNADSSNTALNMPVIPMNTIAEAVIEMINRGQIQITINGFSISNGLATTQINNKAATGEEVPRTIIVTTRSQYGLPEDAIVYCNFNQLYKIDPSTLQMWANILKRVPNSVLWLLRFPAVGEPNIQQYAQNMGLPQNRIIFSPVAPKEEHVRRGQLADVCLDTPLCNGHTTGMDVLWAGTPMVTMPGETLASRVAASQLTCLGCLELIAKNRQEYEDIAVKLGTDLEYLKKVRGKVWKQRISSPLFNTKQYTMELERLYLQMWEHYAAGNKPDHMIKPVEVTESA
